# In the supplement of paper PMC6411743:
# ± gives the standard deviation of the averaged measurements. The entries are a selection whose mix differs from that of the whole data set.
# How the values were obtained:
# Assay in all cases: NP40-soluble protein abundance relative to vehicle (solubility fold change) (ratio); higher = more soluble protein in presence of AMP-PNP
# [1] = molecular target: T1, GALE (UniProt Q14376)
# T1 sequence (whole entry): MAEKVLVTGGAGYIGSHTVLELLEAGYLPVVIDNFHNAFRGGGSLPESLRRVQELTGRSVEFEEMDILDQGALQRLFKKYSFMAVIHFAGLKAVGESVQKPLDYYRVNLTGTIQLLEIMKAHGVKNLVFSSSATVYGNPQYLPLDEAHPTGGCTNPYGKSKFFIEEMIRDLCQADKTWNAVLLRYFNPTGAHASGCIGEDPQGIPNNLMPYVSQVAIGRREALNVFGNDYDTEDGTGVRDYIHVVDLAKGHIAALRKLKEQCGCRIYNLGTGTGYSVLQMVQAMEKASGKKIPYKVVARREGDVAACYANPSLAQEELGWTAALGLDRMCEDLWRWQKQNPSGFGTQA
# Method in brief: (§1)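 Crude Jurkat lysate, prepared by Dounce homogenisation, was exposed to eight concentrations from 0.1 to 10 mM for 10 min at room temperature and then 3 min at 37 °C. Solubilisation used 0.8% NP40 with benzonase for 60 min at 4 °C, followed by ultracentrifugation and TMT labelling of the supernatant for LC-MS/MS. After vsn normalisation of intensities, each value is the fold change against the detergent-processed vehicle within each replicate, across three independent experiments.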
# [2] = molecular target: T2, LAGE3 (UniProt Q14657)
# T2 sequence (whole entry): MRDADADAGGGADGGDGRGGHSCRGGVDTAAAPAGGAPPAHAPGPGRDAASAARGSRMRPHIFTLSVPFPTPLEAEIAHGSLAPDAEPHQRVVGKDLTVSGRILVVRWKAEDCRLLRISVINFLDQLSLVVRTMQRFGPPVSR
# Method in brief: as §1
# [3] = molecular target: T3, LMAN2 (UniProt Q12907)
# T3 sequence (whole entry): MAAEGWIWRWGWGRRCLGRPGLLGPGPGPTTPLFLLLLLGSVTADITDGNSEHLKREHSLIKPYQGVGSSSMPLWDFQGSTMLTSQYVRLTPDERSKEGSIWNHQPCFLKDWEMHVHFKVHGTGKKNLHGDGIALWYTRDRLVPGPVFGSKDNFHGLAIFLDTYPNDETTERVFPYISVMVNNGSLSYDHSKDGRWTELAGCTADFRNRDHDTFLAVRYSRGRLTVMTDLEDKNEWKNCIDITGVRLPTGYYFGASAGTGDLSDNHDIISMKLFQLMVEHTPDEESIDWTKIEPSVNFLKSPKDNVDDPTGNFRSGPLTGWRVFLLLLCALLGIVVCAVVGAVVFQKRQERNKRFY
# Method in brief: as §1
# [4] = molecular target: T4, MLLT11 (UniProt Q13015)
# T4 sequence (whole entry): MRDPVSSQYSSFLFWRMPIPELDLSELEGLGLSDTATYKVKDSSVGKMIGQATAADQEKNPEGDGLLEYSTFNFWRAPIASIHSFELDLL
# Method in brief: as §1
# [5] = molecular target: T5, NPAT (UniProt Q14207)
# T5 sequence (whole entry): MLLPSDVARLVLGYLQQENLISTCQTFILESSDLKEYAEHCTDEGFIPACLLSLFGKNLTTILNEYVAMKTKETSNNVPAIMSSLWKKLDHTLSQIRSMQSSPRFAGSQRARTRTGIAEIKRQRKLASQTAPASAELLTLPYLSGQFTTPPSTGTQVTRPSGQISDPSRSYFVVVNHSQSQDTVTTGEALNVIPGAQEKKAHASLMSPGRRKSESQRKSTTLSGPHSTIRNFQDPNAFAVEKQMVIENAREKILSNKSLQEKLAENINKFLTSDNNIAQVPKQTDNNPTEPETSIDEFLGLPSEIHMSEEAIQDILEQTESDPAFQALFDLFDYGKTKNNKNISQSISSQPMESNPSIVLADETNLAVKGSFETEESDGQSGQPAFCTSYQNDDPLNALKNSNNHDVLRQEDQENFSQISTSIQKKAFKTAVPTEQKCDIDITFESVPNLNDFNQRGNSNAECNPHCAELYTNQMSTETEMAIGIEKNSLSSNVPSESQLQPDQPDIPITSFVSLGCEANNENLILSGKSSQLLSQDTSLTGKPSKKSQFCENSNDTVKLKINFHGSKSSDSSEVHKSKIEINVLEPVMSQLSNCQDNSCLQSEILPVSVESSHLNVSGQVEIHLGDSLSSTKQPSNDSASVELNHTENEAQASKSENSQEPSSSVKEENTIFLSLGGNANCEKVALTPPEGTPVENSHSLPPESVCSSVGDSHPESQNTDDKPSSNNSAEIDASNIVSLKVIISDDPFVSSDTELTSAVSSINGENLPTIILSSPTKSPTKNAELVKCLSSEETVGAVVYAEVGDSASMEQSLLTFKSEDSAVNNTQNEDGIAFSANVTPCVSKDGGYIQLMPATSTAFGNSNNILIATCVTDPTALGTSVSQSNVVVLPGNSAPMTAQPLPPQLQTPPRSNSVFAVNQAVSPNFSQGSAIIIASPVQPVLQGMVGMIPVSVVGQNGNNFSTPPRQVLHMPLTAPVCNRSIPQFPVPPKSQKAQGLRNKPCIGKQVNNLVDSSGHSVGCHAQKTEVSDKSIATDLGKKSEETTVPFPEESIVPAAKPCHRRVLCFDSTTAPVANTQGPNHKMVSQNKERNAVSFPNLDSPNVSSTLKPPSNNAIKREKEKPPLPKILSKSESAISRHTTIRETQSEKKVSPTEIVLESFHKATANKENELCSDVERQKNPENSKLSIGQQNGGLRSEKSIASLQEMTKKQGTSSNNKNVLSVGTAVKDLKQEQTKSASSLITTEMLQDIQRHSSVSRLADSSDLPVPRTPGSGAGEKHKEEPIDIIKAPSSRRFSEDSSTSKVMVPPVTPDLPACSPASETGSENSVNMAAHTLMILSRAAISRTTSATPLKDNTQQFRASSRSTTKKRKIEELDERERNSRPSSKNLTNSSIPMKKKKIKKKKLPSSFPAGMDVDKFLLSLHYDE
# Method in brief: as §1
# [6] = molecular target: T6, PSMD6 (UniProt Q15008)
# T6 sequence (whole entry): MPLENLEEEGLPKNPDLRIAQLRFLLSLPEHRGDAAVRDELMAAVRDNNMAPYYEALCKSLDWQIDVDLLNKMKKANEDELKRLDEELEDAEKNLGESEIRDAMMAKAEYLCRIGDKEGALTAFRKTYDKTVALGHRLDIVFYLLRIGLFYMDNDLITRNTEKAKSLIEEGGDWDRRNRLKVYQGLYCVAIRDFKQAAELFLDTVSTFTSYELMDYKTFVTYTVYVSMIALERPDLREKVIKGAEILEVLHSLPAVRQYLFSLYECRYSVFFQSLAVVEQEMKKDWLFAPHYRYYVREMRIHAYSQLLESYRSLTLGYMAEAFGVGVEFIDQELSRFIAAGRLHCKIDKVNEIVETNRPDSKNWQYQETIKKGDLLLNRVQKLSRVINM
# Method in brief: as §1
smiles,measurement,setting,value
Nc1ncnc2c1ncn2[C@@H]1O[C@H](COP(=O)(O)OP(=O)(O)NP(=O)(O)O)[C@@H](O)[C@H]1O [adenylyl imidodiphosphate],NP40-soluble protein abundance,[1]; concentration: 1mM,0.971 ± 0.036
same,NP40-soluble protein abundance,[1]; concentration: 2mM,0.948 ± 0.062
same,NP40-soluble protein abundance,[1]; concentration: 4mM,1.01 ± 0.024
same,NP40-soluble protein abundance,[1]; concentration: 6mM,1.02 ± 0.074
same,NP40-soluble protein abundance,[1]; concentration: 8mM,1.04 ± 0.058
same,NP40-soluble protein abundance,[1]; concentration: 10mM,0.992 ± 0.05
same,NP40-soluble protein abundance,[2]; concentration: 1mM,0.939 ± 0.046
same,NP40-soluble protein abundance,[2]; concentration: 2mM,0.923 ± 0.024
same,NP40-soluble protein abundance,[2]; concentration: 4mM,0.933 ± 0.034
same,NP40-soluble protein abundance,[2]; concentration: 6mM,0.937 ± 0.059
same,NP40-soluble protein abundance,[2]; concentration: 8mM,0.964 ± 0.044
same,NP40-soluble protein abundance,[2]; concentration: 10mM,0.931 ± 0.04
same,NP40-soluble protein abundance,[3]; concentration: 1mM,0.994 ± 0.057
same,NP40-soluble protein abundance,[3]; concentration: 2mM,0.937 ± 0.011
same,NP40-soluble protein abundance,[3]; concentration: 4mM,0.971 ± 0.066
same,NP40-soluble protein abundance,[3]; concentration: 6mM,0.971 ± 0.055
same,NP40-soluble protein abundance,[3]; concentration: 8mM,1.02 ± 0.072
same,NP40-soluble protein abundance,[3]; concentration: 10mM,0.98 ± 0.055
same,NP40-soluble protein abundance,[4]; concentration: 1mM,0.986 ± 0.041
same,NP40-soluble protein abundance,[4]; concentration: 2mM,1.02 ± 0.025
same,NP40-soluble protein abundance,[4]; concentration: 4mM,0.96 ± 0.028
same,NP40-soluble protein abundance,[4]; concentration: 6mM,1 ± 0.048
same,NP40-soluble protein abundance,[4]; concentration: 8mM,0.971 ± 0.034
same,NP40-soluble protein abundance,[4]; concentration: 10mM,0.971 ± 0.04
same,NP40-soluble protein abundance,[5]; concentration: 1mM,1.05 ± 0.023
same,NP40-soluble protein abundance,[5]; concentration: 2mM,1.04 ± 0.031
same,NP40-soluble protein abundance,[5]; concentration: 4mM,1.02 ± 0.011
same,NP40-soluble protein abundance,[5]; concentration: 6mM,0.997 ± 0.047
same,NP40-soluble protein abundance,[5]; concentration: 8mM,0.995 ± 0.03
same,NP40-soluble protein abundance,[5]; concentration: 10mM,1.03 ± 0.017
same,NP40-soluble protein abundance,[6]; concentration: 1mM,0.989 ± 0.034
same,NP40-soluble protein abundance,[6]; concentration: 2mM,0.952 ± 0.062
same,NP40-soluble protein abundance,[6]; concentration: 4mM,0.933 ± 0.067

# Shown as tab-separated lines: part of the list above
smiles	measurement	setting	value
Nc1ncnc2c1ncn2[C@@H]1O[C@H](COP(=O)(O)OP(=O)(O)NP(=O)(O)O)[C@@H](O)[C@H]1O [adenylyl imidodiphosphate]	NP40-soluble protein abundance	[4]; concentration: 1mM	0.986 ± 0.041
same	NP40-soluble protein abundance	[4]; concentration: 2mM	1.02 ± 0.025
same	NP40-soluble protein abundance	[4]; concentration: 4mM	0.96 ± 0.028
same	NP40-soluble protein abundance	[4]; concentration: 6mM	1 ± 0.048
same	NP40-soluble protein abundance	[4]; concentration: 8mM	0.971 ± 0.034
same	NP40-soluble protein abundance	[4]; concentration: 10mM	0.971 ± 0.04
same	NP40-soluble protein abundance	[5]; concentration: 1mM	1.05 ± 0.023
same	NP40-soluble protein abundance	[5]; concentration: 2mM	1.04 ± 0.031
